Laboratory results reported in paper PMC9280132.
No constants are given. Whether binding was seen depends on the method and setting. Binding seen in cells or lysates may run through a third protein. Some entries that bind do so weakly or less than the wild type. Blank lines part the entries; values can stand above or below the substance they belong to.

Sequences of proteins named here, by UniProt entry; tags and fusion partners are left off. Residues count along the entry.
UniProt P14618: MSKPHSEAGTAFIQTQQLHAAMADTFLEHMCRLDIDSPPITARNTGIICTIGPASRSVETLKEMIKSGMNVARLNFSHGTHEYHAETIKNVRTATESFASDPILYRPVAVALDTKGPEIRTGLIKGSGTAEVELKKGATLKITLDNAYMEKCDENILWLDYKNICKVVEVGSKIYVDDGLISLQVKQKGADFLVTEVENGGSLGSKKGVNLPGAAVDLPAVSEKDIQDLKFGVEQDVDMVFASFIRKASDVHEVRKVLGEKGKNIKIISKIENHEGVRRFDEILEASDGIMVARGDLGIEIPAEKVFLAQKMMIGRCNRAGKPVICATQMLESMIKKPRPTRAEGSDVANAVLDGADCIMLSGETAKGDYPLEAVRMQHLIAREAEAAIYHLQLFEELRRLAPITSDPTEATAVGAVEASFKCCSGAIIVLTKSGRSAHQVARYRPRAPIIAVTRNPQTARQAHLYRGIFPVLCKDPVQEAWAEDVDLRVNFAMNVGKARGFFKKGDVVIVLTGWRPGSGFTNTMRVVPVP
UniProt P11021, residues 19-654: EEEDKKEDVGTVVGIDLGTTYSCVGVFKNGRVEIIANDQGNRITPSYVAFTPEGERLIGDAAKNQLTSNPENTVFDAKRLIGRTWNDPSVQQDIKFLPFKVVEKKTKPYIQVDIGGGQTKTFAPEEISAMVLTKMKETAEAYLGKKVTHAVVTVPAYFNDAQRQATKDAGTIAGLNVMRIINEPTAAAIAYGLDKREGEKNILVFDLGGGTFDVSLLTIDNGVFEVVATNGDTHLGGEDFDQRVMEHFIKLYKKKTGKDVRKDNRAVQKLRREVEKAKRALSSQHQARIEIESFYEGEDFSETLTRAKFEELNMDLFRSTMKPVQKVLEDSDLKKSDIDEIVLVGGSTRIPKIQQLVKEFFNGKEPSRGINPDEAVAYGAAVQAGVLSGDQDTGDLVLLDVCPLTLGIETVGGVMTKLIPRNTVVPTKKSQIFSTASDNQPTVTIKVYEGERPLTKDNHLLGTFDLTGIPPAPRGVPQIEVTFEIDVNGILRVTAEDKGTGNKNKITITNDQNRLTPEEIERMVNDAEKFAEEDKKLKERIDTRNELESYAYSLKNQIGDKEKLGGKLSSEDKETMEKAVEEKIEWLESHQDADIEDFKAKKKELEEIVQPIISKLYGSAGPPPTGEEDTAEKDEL

Columns and labels:
[1] = biological target: recombinant PKM2 (pyruvate kinase M2) (human) (UniProt P14618); assay: pull-down; His-tagged rPKM2 covalently coupled to CNBr-activated matrix, incubated with crude fractions of the plasma membrane of A549 cells; washed three times with Tris buffer (50 mM Tris, 150 mM NaCl, 0.5% NP40); immunoblot; only the target purified
[2] = biological target: GRP78 (human (endogenous in A549 and H1299)) (UniProt P11021); assay: co-IP; A549- and H1299-conditioned media incubated with anti-Hsp90α or anti-GRP78 antibody and protein G-Sepharose overnight at 4°C; washed three times with IP lysis buffer; immunoblot
[3] = biological target: GRP78 (human (endogenous in A549 and H1299)) (UniProt P11021); assay: co-IP; crude fractions of the plasma membrane of A549 cells treated with rPKM2, with or without rHsp90α, immunoprecipitated with IgG or anti-GRP78 antibodies; only the binder purified

binding [1]: binds
Substance: GRP78 (from UniProt P11021 19-654)

binding [2]: binds
Substance: extracellular PKM2 (from UniProt P14618 1-531)

binding [3]: binds
Substance: recombinant PKM2 (pyruvate kinase M2) (from UniProt P14618 1-531) (enzyme)
